Results are given in words; binding and its absence hold for the method and conditions named. In cells and extracts the contact can be indirect. Here binding means that the protein was enriched with, or labelled near, the bait; the list need not be complete.

The chains behind the UniProt entries cited, without tags or fusion partners.
UniProt P62627: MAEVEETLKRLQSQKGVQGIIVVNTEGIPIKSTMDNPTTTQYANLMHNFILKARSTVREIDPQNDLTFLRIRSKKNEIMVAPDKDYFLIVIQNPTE

T1: NWC protein (mouse (endogenous in testes)) (UniProt Q9CQI4)
T1 sequence: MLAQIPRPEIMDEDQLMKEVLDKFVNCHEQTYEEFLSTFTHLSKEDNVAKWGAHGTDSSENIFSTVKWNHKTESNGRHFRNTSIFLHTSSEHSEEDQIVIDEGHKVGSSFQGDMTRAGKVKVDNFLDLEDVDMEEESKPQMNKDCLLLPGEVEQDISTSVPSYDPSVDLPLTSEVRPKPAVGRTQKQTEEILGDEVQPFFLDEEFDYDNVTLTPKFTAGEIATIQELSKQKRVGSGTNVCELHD

B1: IFT-122 (protein, UniProt Q6NWV3 1-1182)
chain: MRAVLTWRDKAEQCIYDLAFKPDGTQLILAAGNRLLVYDTSDGTLLQPLKGHKDTVYCVAYAKDGKRFASGSADKSIIIWTSKLEGILKYTHNDSIQCVSYNPVTHQLASCSSSDFGLWSPEQKSVSKHKSSSKITCCSWTNDGQYLALGMANGIISIRNKNGEEKVKIERPGGSLSPIWSICWNPSREEHNDILAVADWGQKLSFYQLSGKQIGKDRPLNFDPCCISYFTKGEYILVGGSDKQVSLFTKDGVRLGTVGEQNSWVWTCRVKPDSNYVVVGCQDGTISFYQLIFSTVHGLYKDRYAYRDSMTDVIVQHLITEQKVRIKCRELVKKIAIYKNRLAIQLPEKILIYELYSEDSTDMHYRVKEKIVKKFECNLLVVCADHIILCQEKRLQCLSFSGVKEREWQMESLIRYIKVIGGPAGREGLLVGLKNGQILKIFVDNLFAIVLLKQATAVRCLDMSASRNKLAVVDENDTCLVYDIHTKELLFQEPNANSVAWNTQCEDMLCFSGGGYLNIKASTFPVHQQKLQGFVVGYNGSKIFCLHVFSMSAVEVPQSAPMYQYLDRKMFKEAYQIACLGVTDADWRELAMEALEGLEFETARKAFTRVQDLRYLELISSIEERKKRGETNNDLFLADVFSYQGKFHEAAKLYKRSGHENLALDMYTDLCMFEYAKDFLGSGDPKETKMLITKQADWARNINEPKAAVEMYISAGEHAKAIEISGSHGWVDMLIDIARKLDKAEREPLLMCACYFKKLDSPGYAAETYLKIGDLKSLVQLYVDTKRWDEAFALGEKHPEFKDDVYVPYAQWLAENDRFEEAQKAFHKAGRQGEAVRVLEQLTHNAVVESRFNDAAYYYWMLSMQCLDMAQDPAQKDAMLDKFHHFQHLAELYHGYQTIHRYTEEPFSFDLPETLFNISKFLLHSLTKATPLGISKVNTLFTLAKQSKALGAYKLARHAYDKLRGLQIPARIQKSIELGTLTIRSKPFHDSEELVPLCYRCSTNNPLLNNLGNVCINCRQPFIFSASSYEVLHLVEFYLEEGITDEEAVALIDLEAPRHKREGKWRETSSNNSQTLKLDETMDSIGEDDPFTAKLSFEQGSSEFVPVVVNRSVLRSMSRRDVLIKRWPPPLQWQYFRSLLPDASITMCPSCFQMFHSEDYELLVLQHACCPYCRRRIDDTGP
B2: Radial spoke head protein 6 homolog A (protein, UniProt Q8CDR2 1-708)
chain: MGEPPPNPDPSQTRRASQGSERARSQEYSQPLLTIPEDGLNRPPPQRGSRSSQGSQDLQGTGLPHWPQRSSLVPDVQGDEGTEYHQSMPLGYTPGFPMEFSQQGYLDDSRMMEQFPQGQDLLEQLESTYQGSASGILGQLNLYPREDEIFSQDTQHGPYLRDDPSLHLRPSDLGFMPIVGEVPDPEPRELAIQNAKAYLLRTSMSCNLSLYEHLVNLLTKILNQRPEDPLSILESLNRTMQWEWFHPKLDTLRDDPEMQPTYEMAEKQKALFIRGGGEGEQEMEEEVTDSPVPNIMETAFYFEQAGVGLSSDESFRIFLALKQLVEQQPIHMCRFWGKILGLSRSYLVAEVEFREGEEEGEEEEVEEMMEGGEVLETHGEEEGEEDEEKVVDSVPKPQWKPPPIIPKEESRSGTNKYLYFVCNEPGRPWTRLPHVTPAQIVCARKIKKFFTGFLDTPVISYPPFPGNEANYLRAQIARISAATHISPLGFYQFGEEEGDEEEEGGAGRDSFEENPDFEGIPVLELVDSMANWVHHTQHILPQGRCTWVNPLQKTEEEEELGEEEEKADEAMEEVEQEVGPPLLTPLSEDAEIMHLSPWTTRLSCSLSPQYSVAIVRSNLWPGAYAYATGKKFENIYIGWGHKYSPENFNPMLPALIQQEYPSGPEITEMSDPTVEEEQALKAAQEQALAAAEEEEEDEEEEEDEDLED
B3: IFT-139 (Ttc21b) (protein, UniProt Q0HA38 1-1315)
chain: MDSQGLKTLINYYCQERYYHHVLLVASEGMKKYSSDPVFRFYHAYGTLMEGKAQEALREFEAIKNKQDVSLCSLMALMYVHKMSPNPDREAILELDTKMKEQRKEAGRKALYHAGLFLWHIGRHDKAREYIDRMSKMPHDSNEGPILKAWLDITRGKEPYAKKALRYFEEGLQDGNDIFALLGKVLCLEIRQNYSGALETVSQIIVNFPSFLPAFEKKMKLQLALQDWDQTVETAQRLLLQDNHNVEALRMLALYYLCREGDVEKAATKLENLGNALDVMEPQNAQLFYKITLAFSRTCGRNQLILQKVQSFLEKAFSLTPQQAEIATELGYQMILQGKVKEAWKWYRTAMTLNESNISAVTGLIRCQLIEGQLQDADQQLEFFSEFQQSMGKSAELMYLHAVLATKKNNRQDEVINLLNDVVNTHFSHLEDLPLGIQYFEKLNPDFLLEVVTEYLNLCPIQPAGPGQPLSPVLRRCSSVLETIIRSVPGLPQAVFLMAKVKYLSGDTEAAYNNLQHCLEHSPSYAEAHLLMAQVYLSQDKVKLCSQSLELCLSYNFNVREYPLYHLIKAQSQKKMGEVAEAIKTLHMAMNLPGMRRSRASSKSKHRTEVDASHRLSIFLELVEVHRLNGEQHEAAKVLQDAIHEFSGTCEELRVTIANADLALAQGDTDRALSMLRNVTTEQPYFIEAKEKMADIYLKHRKEKMLYITCYREIAERMPSPRSFLLLGDAYMNIQEPEEAIVAYEQALNQNPKDGTLARKIGKALVKTHNYSKAITYYEAALKSGQQNCLCYDLAELLLRLKLYEKAEKVLQHSLAHEPVSELSALMVDGRSQVLLAKVYSKMERPSDAIAALQQARELQARILKRVQMEQPDAVPSQKHFAAEICAEIAKHSAAQRDYEKAITFYREALVHCETDSKIMLELAQLYLAQEDLDASLRHCALLLQRDQDNEPATMLMADLMFRKQDYEQAVYHLQQLLDRKPDNFMTLSRLIDLLRRCGKLEDVPRFFLMAEKHNSRTKLEPGFQYCKGLHFWYTGEPNDALRHFNKARKDSDWGQNALYNMIEICLNPDNETIGGEVFENLNGDLGTSPEKQESVQLAVRTAEKLLKELKPQTVQGRLQLRIMENCCLMATKQKSSVEQALNTFTEIAASEKDHIPALLGMATAYMILKQTPKARNQLKRIAKMPWNPIEAEDLEKSWLLLADIYIQSAKYDMAEELLKRCLCHNRSCCKAYEYMGYIMEKEQAYTDAAFNYEMAWKHSNQTNPAVGYKLAFNYLKAKRYVDAIDVCHQVLEAHPTYPKIRKDILDKARASLRP
B4: IFT-144 (protein, UniProt Q3UGF1 1-1341)
chain: MKRVFSLLEKSWLGAPIQFAWQKSSGNYLAVTGADYIVKIFDRHGQKRSEISLPGNCVTMDWDKDGDILAVIAEKSSCIYLWDANTNKTSQLDNGMRDQMSFLLWSKIGSFLAVGTIKGNLLIYNHQTSRKIPVLGKHTKKITCGCWNSENLLALGGEDKMITVSNQEGDTIRQTPVKSEPSDIKFSMSKTDERISSAENTISAVVGKKMLFLFHLNEPDNPVDLEFQQAYGNIVCYSWYGDGYIMIGFSRGTFLAISTHFPEVGQEIFKARDHKDNLTSVALSQTLNKAATCGDNCIKIHDLTELRDMYAIINLDDENKGLGTLSWTDDGQLLALSTQRGSLHVFLTKLPILGDACHTRIAYLTSLLEVTVANLIEGEPPITVSVDVEPTFVAVGLYHLAVGMNNRAWFYVLGENVVKKLKDVEYLGTVASICLHSDYAAALFEGKIQLHLIENEMLDAQEERETRLFPAVDDKCRILCHALTSDFLIYGTDTGIIHYFFIEDWQFVNDYRHPVGVKKLFPDPNGTRLVFIDEKSDGFVYCPVNDATYEIPDFSPTIKGVLWENWPMDKGVFIAYDDDKVYTYAFHKDTIQGSKVILAGSTKLPFSHKPLLLYNGELTCQTQSGKINSIYLSTHSFLGSMKDTEPTDLRQMLTQTLLLKRFSDAWDICKMLNDRTSWSELAKACLHHMEVEFAIRVSRTMGDVGTVMSLEQIKGIEDYNLLAGHLAMFTNDFNLAQDLYLASNCPVAALEMRRDLQHWDSALQLAKRLAPDQIPFISKEYAIQLEFTGDYVNALAHYEKGITGDNKEHDEVCLAGVAQMSIRMGDIRRGANQALKHPSRVLKRDCGAILENMKQFSEAAQLYEKGQYYDRAASVYIRCKNWAKVGELLPHVSSPKIHLQYAKAKEADGRYKEAVVAYENAKQWNSVIRIYLDHLNNPEKAVSIVRETQSLDGAKMVARFFLQLGDYGSAIQFLVLSKCNNEAFTLAQQHNKMEIYADIIGAEDTTNEDYQSIALYFEGEKRHFQAGKFFLLCGQYSRALKHFLKCPSSEDNVAIEMAIETVGQAKDELLTNQLIDHLMGESDGMPKDAKYLFRLYMALKQYREAARTAIIIAREEQSAGNYRNAHDVLFSMYAELKAQKIKIPSEMATNLMILHSYILVKIHVKSGDHMKGARMLIRVANNISKFPSHIVPILTSTVIECHRAGLKNSAFSFAAMLMRPEYRNKIDAKYKKKIEAMVRRPDTSETEEATTPCPFCQFLLPECELLCPGCKNNIPYCIATGRHMLKDDWTMCPHCGFPALYSEFKILLNSESTCPMCSERLNSSQLKKITDCSQYLRTEME
B5: IFT-43 (protein, UniProt Q9DA69 1-206)
chain: MDDLLDLGEERRRSSATSGAKMGRRAHQESTQAENYLNSKNSSLTQTGEAPPPKPPRRQGGWADDSMKMAKLGKKVSEEMEDHRLRQQNLMGSDDDDIPVIPDLEDVQEEDFVLQVASPPSIQVNRVMTYRDLDNDLMKYSAFQTLDGEIDLKLLTKVLAPEHEVREDDVGWDWDHLYTEVSSELLTEWDLLRAEKEDPVGPSRYI
B6: Radial spoke head protein 9 homolog (protein, UniProt Q9D9V4 1-276)
chain: MDADSLLLSLELASGSGQGLSPDRRASLLTSLMLVKRDYRFARVLFWGRILGLVADYYIAQGLSEDQLAPRKTLYSLNCTEWSLLPPATEEMAMQISVVSGRFMGDPSHEYEHTELQKVNEGEKVFDEEVVVQIKEETRLVSIIDQIDKAVAIIPRGALFKTPFGVTHVNRTFEGLPLSEVRKLSSYFHFREAIDLKNKTLLEKSDLEPSLDFLDSLEYDIPRGSWSIQMERGNALVVLRSLLWPGLTFYHAPRTKNYGYIYVGTGEKNMDLPFML

In the test the target is T1, NWC protein (mouse (endogenous in testes)). Description: affinity purification with mass spectrometry; Pierce Co-Immunoprecipitation Kit; anti-NWC polyclonal Ab285 (15 ug) immobilised on agarose resin; cleared testes lysates of wild-type mice, overnight at 4 °C; NWC-KOMPcre testes lysates and control rabbit IgG as negative controls; eluates analysed by LC-MS-MS/MS; four independent experiments.
As for “Carbonic anhydrase 2 (from UniProt P00920 1-260)”, the binding result was “binds”. For “Dynein light chain roadblock-type 1 (from UniProt P62627 1-96)”, the binding result is listed as “binds”. In the case of B1, the binding entry is on record as “binds”. The entry for B2 is “binds”. For B3 the value was “binds”; for B4, “binds”. In the case of B5, the binding entry is on record as “binds”. The entry for B6 is “binds”.

Values taken from paper PMC4939155.
